# PubChem BioAssay AID1159578 | Peter MacCallum Cancer Centre – 2015
# Test: 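Knock-downs that alter how fast lymphatic endothelial cells migrate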 (primary screen)
# Cells: human lymphatic endothelial cells
# Reagent: siRNA pool against human genes, 40 nM
# Duration: 48 h after transfection
# Measured: 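High-content imaging of dye-stained cells in a scratch assay measures filled wound area and nuclei per well; duplicate means given as ratio to mock and robust z-score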
# Direction: migration robust z-score: higher = faster migration into the scratch; migration relative to mock: higher = more scratch area covered than mock; nuclei per well: higher = more cells in the well
# Active means: 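Migration changed when robust z exceeds 2 or falls below -2 and mean nuclei number is at least 3300; otherwise not called changed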
# Calls: active = migration changed; inactive = no migration change, or too few cells
# Shown is an unselected part of about 18,000 deposited reagents. About 1,030 of all reagents (5.7%) count as active. 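Inactive calls also include pools with fewer than 3300 nuclei, whose migration was not assessed.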 Raw values are not corrected between plates. A number with no mark means an inactive call. Reagents against one gene are numbered here.
gene,reagent,migration robust z-score,migration class with cell-count check,migration relative to mock,"nuclei per well, duplicate mean"
HIPK4 (homeodomain interacting protein kinase 4),1,-0.02,migration z between -2 and 2; enough cells,0.8,6297
TRHDE (thyrotropin releasing hormone degrading enzyme),1,-0.31,migration z between -2 and 2; enough cells,0.74,5785
CNNM2,1,1.54,migration z between -2 and 2; enough cells,1.29,5990
PREB (prolactin regulatory element binding),1,-0.34,migration z between -2 and 2; enough cells,0.74,5518
PRICKLE4 (prickle planar cell polarity protein 4),1,0.52,migration z between -2 and 2; enough cells,0.9,5966
TEX9 (testis expressed 9),1,-0.37,migration z between -2 and 2; enough cells,0.8,4576
PLEC (plectin),1,-0.84,migration z between -2 and 2; enough cells,0.66,5420
H3C1 (H3 clustered histone 1),1,-1.5,migration z between -2 and 2; enough cells,0.5,5512
GSTT2B (glutathione S-transferase theta 2B),1,1.03,migration z between -2 and 2; enough cells,1.16,6725
CD80 (CD80 molecule),1,-1.25,migration z between -2 and 2; enough cells,0.56,5132
OR51F2 (olfactory receptor family 51 subfamily F member 2),1,-0.43,migration z between -2 and 2; enough cells,0.77,6026
HERC2 (HECT and RLD domain containing E3 ubiquitin protein ligase 2),1,1.71,migration z between -2 and 2; enough cells,1.13,6582
ASZ1,1,-0.83,migration z between -2 and 2; enough cells,0.67,5025
RPL18 (ribosomal protein L18),1,0.2,migration z between -2 and 2; enough cells,0.94,4957
CFB (complement factor B),1,-0.8,migration z between -2 and 2; enough cells,0.65,5039
LHX2 (LIM homeobox 2),1,-0.38,migration z between -2 and 2; enough cells,0.79,5700
NACC1 (nucleus accumbens associated 1),1,0.57,migration z between -2 and 2; enough cells,1.04,5690
MAFG (MAF bZIP transcription factor G),1,0.05,migration z between -2 and 2; enough cells,0.82,5928
PHYHD1 (phytanoyl-CoA dioxygenase domain containing 1),1,-0.52,migration z between -2 and 2; enough cells,0.7,6280
GRAMD1C (GRAM domain containing 1C),1,-0.19,migration z between -2 and 2; enough cells,0.84,3587
BRD2 (bromodomain containing 2),1,-1.38,migration z between -2 and 2; enough cells,0.54,3770
TIGIT (T cell immunoreceptor with Ig and ITIM domains),1,-1.26,migration z between -2 and 2; enough cells,0.56,5902
ARHGEF2 (Rho/Rac guanine nucleotide exchange factor 2),1,-0.65,migration z between -2 and 2; enough cells,0.68,3822
SLC18B1,1,1.04,migration z between -2 and 2; enough cells,1.15,5912
NIBAN3 (niban apoptosis regulator 3),1,-0.4,migration z between -2 and 2; enough cells,0.78,5622
AEBP1 (AE binding protein 1),1,0.7,migration z between -2 and 2; enough cells,0.94,5908
ELOA (elongin A),1,1.12,migration z between -2 and 2; enough cells,1.02,5966
HK1 (hexokinase 1),1,-1.19,migration z between -2 and 2; enough cells,0.57,5628
PDGFB (platelet derived growth factor subunit B),1,-0.36,migration z between -2 and 2; enough cells,0.74,6392
PLEKHG2 (pleckstrin homology and RhoGEF domain containing G2),1,0.88,migration z between -2 and 2; enough cells,1.1,4622
NCOA2 (nuclear receptor coactivator 2),1,1.58,migration z between -2 and 2; enough cells,1.11,6040
TXNDC5 (thioredoxin domain containing 5),1,0.6,migration z between -2 and 2; enough cells,0.92,4931
GRIP1 (glutamate receptor interacting protein 1),1,0.23,migration z between -2 and 2; enough cells,0.94,5095
MMP11 (matrix metallopeptidase 11),1,-0.57,migration z between -2 and 2; enough cells,0.69,5484
GTSE1 (G2 and S-phase expressed 1),1,-0.83,migration z between -2 and 2; enough cells,0.64,5336
EMC8 (ER membrane protein complex subunit 8),1,1.19,migration z between -2 and 2; enough cells,1.19,5176
SPOPL (speckle type BTB/POZ protein like),1,0.54,migration z between -2 and 2; enough cells,1.02,5590
OR4K1 (olfactory receptor family 4 subfamily K member 1),1,1.03,migration z between -2 and 2; enough cells,1.16,5450
GEMIN4 (gem nuclear organelle associated protein 4),1,0.11,under 3300 nuclei; migration not judged,0.91,3092
LRRC15 (leucine rich repeat containing 15),1,-1.4,under 3300 nuclei; migration not judged,0.52,2517
BRD10 (bromodomain containing 10),1,0.5,migration z between -2 and 2; enough cells,1.02,6072
PCBD2 (pterin-4 alpha-carbinolamine dehydratase 2),1,1.55,migration z between -2 and 2; enough cells,1.1,5290
PAGE3 (PAGE family member 3),1,0.77,migration z between -2 and 2; enough cells,1.08,4853
RNASE10 (ribonuclease A family member 10 (inactive)),1,-0.3,migration z between -2 and 2; enough cells,0.81,6708
"PPM1F (protein phosphatase, Mg2+/Mn2+ dependent 1F)",1,-0.44,migration z between -2 and 2; enough cells,0.72,6318
SLC18A2,1,-0.88,migration z between -2 and 2; enough cells,0.64,6132
GPS1 (G protein pathway suppressor 1),1,1.27,migration z between -2 and 2; enough cells,1.21,4404
EDN1 (endothelin 1),1,1.79,migration z between -2 and 2; enough cells,1.34,5612
ITGA2B (integrin subunit alpha 2b),1,-0.42,migration z between -2 and 2; enough cells,0.72,5076
ACSM2A (acyl-CoA synthetase medium chain family member 2A),1,-0.56,migration z between -2 and 2; enough cells,0.74,5697
EIF3J (eukaryotic translation initiation factor 3 subunit J),1,0.26,migration z between -2 and 2; enough cells,0.86,3994
EIF4G2 (eukaryotic translation initiation factor 4 gamma 2),1,-1.38,migration z between -2 and 2; enough cells,0.54,4731
CAMKMT (calmodulin-lysine N-methyltransferase),1,0.92,migration z between -2 and 2; enough cells,1.12,5004
TBC1D19 (TBC1 domain family member 19),1,0.12,migration z between -2 and 2; enough cells,0.92,5818
EIF1AX (eukaryotic translation initiation factor 1A X-linked),1,-0.05,migration z between -2 and 2; enough cells,0.8,5816
ZBTB48 (zinc finger and BTB domain containing 48),1,-0.08,migration z between -2 and 2; enough cells,0.79,5990
ZFTRAF1 (zinc finger TRAF-type and ring finger containing 1),1,1.26,migration z between -2 and 2; enough cells,1.21,6155
RAD54B (RAD54 homolog B),1,0.21,migration z between -2 and 2; enough cells,0.84,6138
LALBA (lactalbumin alpha),1,-0.24,migration z between -2 and 2; enough cells,0.76,7153
TTBK2 (tau tubulin kinase 2),1,-1.32,migration z between -2 and 2; enough cells,0.55,3390
RHOD (ras homolog family member D),1,0.47,migration z between -2 and 2; enough cells,0.9,4210
TRMO (tRNA methyltransferase O),1,0.86,migration z between -2 and 2; enough cells,1.11,5784
HBQ1 (hemoglobin subunit theta 1),1,-1.1,migration z between -2 and 2; enough cells,0.6,4662
FAM170A (family with sequence similarity 170 member A),1,0.6,migration z between -2 and 2; enough cells,1.04,5204
KIF26B (kinesin family member 26B),1,0.44,migration z between -2 and 2; enough cells,1,6464
ADGRL3 (adhesion G protein-coupled receptor L3),1,0.21,migration z between -2 and 2; enough cells,0.84,7156
"RAB17 (RAB17, member RAS oncogene family)",1,0.42,migration z between -2 and 2; enough cells,0.88,5017
RRAS2 (RAS related 2),1,-0.62,migration z between -2 and 2; enough cells,0.68,6202
SLC6A8,1,-0.62,migration z between -2 and 2; enough cells,0.68,5322
ZGRF1 (zinc finger GRF-type containing 1),1,0.26,migration z between -2 and 2; enough cells,0.95,5434
ZGRF1 (zinc finger GRF-type containing 1),2,-0.8,migration z between -2 and 2; enough cells,0.68,5690
TNMD (tenomodulin),1,0.72,migration z between -2 and 2; enough cells,1.07,5318
ERBIN (erbb2 interacting protein),1,-0.34,migration z between -2 and 2; enough cells,0.79,5946

Targets listed so far whose gene name starts with R or r:
gene,reagent,migration robust z-score,migration class with cell-count check,migration relative to mock,"nuclei per well, duplicate mean"
RPL18 (ribosomal protein L18),1,0.2,migration z between -2 and 2; enough cells,0.94,4957
RNASE10 (ribonuclease A family member 10 (inactive)),1,-0.3,migration z between -2 and 2; enough cells,0.81,6708
RAD54B (RAD54 homolog B),1,0.21,migration z between -2 and 2; enough cells,0.84,6138
RHOD (ras homolog family member D),1,0.47,migration z between -2 and 2; enough cells,0.9,4210
"RAB17 (RAB17, member RAS oncogene family)",1,0.42,migration z between -2 and 2; enough cells,0.88,5017
RRAS2 (RAS related 2),1,-0.62,migration z between -2 and 2; enough cells,0.68,6202
